Results from PubChem BioAssay AID1439 (NMMLSC, 2008).
Screen size: about 220,000 compounds; about 770 (0.35%) were called active. The shares of active, inactive and inconclusive entries below differ from those in the screen. Rule as the data show it: active = binding response below about 49% or above about 150%; inconclusive = no clear call, values can overlap the other calls; inactive = in between.

Chains of the proteins cited; added tags and fusions are not shown.
UniProt P09471, whole entry, looked up: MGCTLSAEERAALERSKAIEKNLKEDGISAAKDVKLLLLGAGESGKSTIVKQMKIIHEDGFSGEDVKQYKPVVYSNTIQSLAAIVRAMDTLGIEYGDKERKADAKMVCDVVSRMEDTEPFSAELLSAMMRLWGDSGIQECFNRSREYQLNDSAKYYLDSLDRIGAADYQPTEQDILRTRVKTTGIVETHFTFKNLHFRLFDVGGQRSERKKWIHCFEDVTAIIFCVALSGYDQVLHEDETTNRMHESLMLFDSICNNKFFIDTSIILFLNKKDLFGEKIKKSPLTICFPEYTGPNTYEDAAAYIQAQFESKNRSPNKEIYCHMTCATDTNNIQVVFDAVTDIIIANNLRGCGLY

These molecules were tested against Guanine nucleotide-binding protein G(o) subunit alpha (Homo sapiens) (UniProt P09471) (assay: RGS7-Galphao binding modulators, primary screen, biochemical, multiplexed bead flow cytometry (AID 1439;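 also: fluorescent Galphao held in activated GDP-AlF4 state binding bead-coupled RGS7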)). Settings: at 10 µM, actives lie on both sides.

SMILES | binding response (% of control)
O=C(NC(=S)Nc1ccc(CN2CCCCC2)cc1)c1cc2ccccc2o1 | inconclusive: 92.9%
CCc1cc(OCCN(C)C)ccc1Cl | inconclusive: 57.9%
O=C(COC(=O)c1ccncc1)NCCCc1ccccc1 | active: 152% [activator]
Cc1cc(C)nc(SCC(N)=O)n1 | inconclusive: 94%
C=CCn1c(CCNC(=O)c2cccs2)nnc1SCC(=O)Nc1cccc(F)c1 | inactive: 100%
Cc1ccc(S(=O)(=O)N2CCOCC2)cc1NC(=O)CSc1nnc(N)s1 | inconclusive: 93.6%
O=C1/C(=C/c2ccncc2)N=C2CCCCCN12 | inconclusive: 30.1%
CC(=O)NC(=S)Nc1ccc(S(=O)(=O)Nc2nc(C)cc(C)n2)cc1 | inactive: 99.7%
COc1nc(C)nc(C)c1Oc1ccc(Cl)cc1Cl | inconclusive: 72.3%
O=C(/C=C/c1ccc(Cl)cc1)N(Cc1cccs1)C1CCS(=O)(=O)C1 (stereo unspecified) | inconclusive: 112%
Cc1cccc(Nc2nc(-c3c(C)nc4ccccn34)cs2)c1 | inactive: 98.3%
COc1cc(/C=C/C(=O)NCc2nc3ccccc3[nH]2)cc(OC)c1OC | inconclusive: -10.1%
COc1ccc(Cn2c(-c3ccco3)nc3c(c(=O)c4ccccc4n3C)c2=O)cc1 | inconclusive: 89.1%
NC(=O)[C@H]1CC2(CC(c3cccc(NC(=O)COc4ccc(Cl)cc4)c3)=NO2)CN1C(=O)Cc1ccc([N+](=O)[O-])cc1 (stereo partly specified) | inconclusive: 133%
COc1ccc(-c2nc(-c3ccccc3)nc(N3CCN(C)CC3)c2C#N)cc1 | inactive: 97.2%
CC(C)Oc1ccc(CCC(=O)NNC(=O)CCC(=O)O)cc1 | inconclusive: 82.3%
Cc1cc(-c2onc(C)c2C(=O)Nc2ccc(C(F)(F)F)cc2)no1 | inconclusive: 200%
CCOC(=O)C1=NNC2C(=O)N(Cc3ccccc3)C(=O)C12 (stereo unspecified) | inconclusive: 56.4%
COc1ccc(/C=N\Nc2ncc(F)c(N3CCOCC3)n2)cc1OC | inconclusive: 140%
O=C1CC(Cc2ccc(Cl)cc2)C(=O)N1c1cc(Cl)ccn1 (stereo unspecified) | inconclusive: 144%
Fc1ccc(/C=N/NC(=S)Nc2ccc(Cl)cc2Cl)cc1 | inconclusive: 117%
O=c1c2ccccc2cnn1Cc1n[nH]c(=S)n1-c1ccccc1Cl | inactive: 103%
C=CCn1c(=O)c2ccccc2n2nnc(C(=O)OCC)c12 | inconclusive: -171%
O=C(N/C=C/c1ccco1)Nc1cccc(Cl)c1 | inconclusive: 127%
Cc1ccc(/C=N/NC(=S)NC2CCCCC2)o1 | inconclusive: 121%
CC1(C)Cc2c(C#N)c(NCCO)nc(-c3ccco3)c2CO1 | inconclusive: 71.9%

Quoted from the listing:
Entry of Cc1ccc(S(=O)(=O)N2CCOCC2)cc1NC(=O)CSc1nnc(N)s1 under binding response (% of control): inconclusive: 93.6%
Entry of COc1ccc(-c2nc(-c3ccccc3)nc(N3CCN(C)CC3)c2C#N)cc1 under binding response (% of control): inactive: 97.2%
